Results are given in words; binding and its absence hold for the method and conditions named. Some entries that bind do so weakly or less than the wild type.
Molecular target: T1, DR3 receptor on human TF-1 cells (human) (UniProt Q93038)
T1 sequence (looked up): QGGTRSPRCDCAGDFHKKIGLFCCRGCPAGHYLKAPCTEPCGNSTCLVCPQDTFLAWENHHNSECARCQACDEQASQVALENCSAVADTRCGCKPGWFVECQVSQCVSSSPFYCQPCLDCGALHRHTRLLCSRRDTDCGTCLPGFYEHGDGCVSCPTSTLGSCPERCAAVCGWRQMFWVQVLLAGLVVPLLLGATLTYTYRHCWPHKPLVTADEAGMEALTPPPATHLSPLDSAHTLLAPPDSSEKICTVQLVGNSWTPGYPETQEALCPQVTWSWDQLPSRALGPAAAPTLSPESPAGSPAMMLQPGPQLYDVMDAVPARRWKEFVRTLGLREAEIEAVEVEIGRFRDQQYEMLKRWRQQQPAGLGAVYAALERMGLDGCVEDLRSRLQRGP
Experiment: TF-1 cell caspase activation assay

- binding: binds
B1: recombinant cynomolgus monkey TL1A protein (ligand)
chain: LKGQEFAPSHQQVYAPLRADGDKPRAHLTVVRQTPTQHLKNQFPALHWEHELGLAFTKNRMNYTNKFLLIPESGDYFVYSQVTFRGMTSECSEIRQAGRPNKPDSITVVITKVTDSYPEPTQLLMGTKSVCEVGSNWFQPIYLGAMFSLQEGDKLMVNVSDISLVDYTKEDKTFFGAFLL
